Reference: the supplement of paper PMC7661543
± gives the standard deviation of the averaged measurements. Differences between knockout arms are mostly noise.

Test system: HCC-38
Assay: relative cell number vs DMSO control (72 h) (% of DMSO); higher = less growth inhibition (more cells)
Protocol: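 QMAP-Seq: a pool of 5 breast cancer cell lines (ZR-75-1, SKBR3, HCC-38, MDA-MB-231, BT-20), each carrying 12 doxycycline-inducible Cas9 sgRNA perturbations (11 knockouts plus non-targeting sgNT), was treated with compounds for 72 h at four 10-fold doses (10 nM-10 uM or 1 nM-1 uM range). Barcodes were amplified and sequenced, and cell number was interpolated from 293T spike-in standard curves. The result is expressed as % of the median of DMSO wells. Two biological replicates.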

[1] = sgRNA knockout: sgATF3, 1000 nM
[2] = sgRNA knockout: sgATF3, 10000 nM
[3] = sgRNA knockout: sgATF4, 1000 nM
[4] = sgRNA knockout: sgATF4, 10000 nM
[5] = sgRNA knockout: sgATF6, 1000 nM
[6] = sgRNA knockout: sgATF6, 10000 nM
[7] = sgRNA knockout: sgATG7, 1000 nM
[8] = sgRNA knockout: sgATG7, 10000 nM
[9] = sgRNA knockout: sgERN1, 1000 nM
[10] = sgRNA knockout: sgERN1, 10000 nM
[11] = sgRNA knockout: sgHSF1, 1000 nM
[12] = sgRNA knockout: sgHSF1, 10000 nM
[13] = sgRNA knockout: sgHSF2, 1000 nM
[14] = sgRNA knockout: sgHSF2, 10000 nM
[15] = sgRNA knockout: sgKEAP1, 100 nM
[16] = sgRNA knockout: sgKEAP1, 1000 nM
[17] = sgRNA knockout: sgKEAP1, 10000 nM
[18] = sgRNA knockout: sgNFE2L2, 10 nM
[19] = sgRNA knockout: sgNFE2L2, 100 nM
[20] = sgRNA knockout: sgNFE2L2, 1000 nM
[21] = sgRNA knockout: sgNFE2L2, 10000 nM
[22] = sgRNA knockout: sgSLC35F2, 10 nM
[23] = sgRNA knockout: sgSLC35F2, 100 nM
[24] = sgRNA knockout: sgSLC35F2, 1000 nM
[25] = sgRNA knockout: sgSLC35F2, 10000 nM
[26] = sgRNA knockout: sgXBP1, 1000 nM
[27] = sgRNA knockout: sgXBP1, 10000 nM

With Cc1ccccc1-n1c(Cn2cnc3c(N)ncnc32)nc2cccc(C)c2c1=O the relative cell number (sgRNA knockout: sgATF3, 10 nM) was 109 ± 29, the relative cell number (sgRNA knockout: sgATF3, 100 nM) was 120 ± 23 and the relative cell number [1] was 109 ± 17. The relative cell number [2] was 95.45 ± 0.76, the relative cell number (sgRNA knockout: sgATF4, 10 nM) was 88.1 ± 26 and the relative cell number (sgRNA knockout: sgATF4, 100 nM) was 106 ± 26. For the same compound, the relative cell number [3] was 105 ± 17, the relative cell number [4] was 92 ± 2.3 and the relative cell number (sgRNA knockout: sgATF6, 10 nM) was 111 ± 23. For the same compound, the relative cell number (sgRNA knockout: sgATF6, 100 nM) was 130 ± 23, the relative cell number [5] was 102 ± 26 and the relative cell number [6] was 107 ± 11. The relative cell number (sgRNA knockout: sgATG7, 10 nM) was 105 ± 24, the relative cell number (sgRNA knockout: sgATG7, 100 nM) was 111 ± 24 and the relative cell number [7] was 107 ± 12. It also gave a relative cell number [8] of 98.2 ± 4.2, a relative cell number (sgRNA knockout: sgERN1, 10 nM) of 102 ± 32 and a relative cell number (sgRNA knockout: sgERN1, 100 nM) of 119 ± 37. For the same compound, the relative cell number [9] was 111 ± 19, the relative cell number [10] was 95.7 ± 3.8 and the relative cell number (sgRNA knockout: sgHSF1, 10 nM) was 130 ± 26. The relative cell number (sgRNA knockout: sgHSF1, 100 nM) was 159 ± 40, the relative cell number [11] was 116 ± 37 and the relative cell number [12] was 115 ± 1.6. For the same compound, the relative cell number (sgRNA knockout: sgHSF2, 10 nM) was 117 ± 49, the relative cell number (sgRNA knockout: sgHSF2, 100 nM) was 131 ± 41 and the relative cell number [13] was 118 ± 28. The relative cell number [14] was 107 ± 1.7, the relative cell number (sgRNA knockout: sgKEAP1, 10 nM) was 132 ± 36 and the relative cell number [15] was 159 ± 40. It also gave a relative cell number [16] of 144 ± 56, a relative cell number [17] of 130 ± 4.7 and a relative cell number [18] of 92.2 ± 30. It also gave a relative cell number [19] of 106 ± 23, a relative cell number [20] of 95.2 ± 23 and a relative cell number [21] of 89.4 ± 4.6. It also gave a relative cell number [22] of 98.1 ± 31, a relative cell number [23] of 111 ± 19 and a relative cell number [24] of 103 ± 16. The relative cell number [25] was 97 ± 8.3, the relative cell number (sgRNA knockout: sgXBP1, 10 nM) was 100 ± 32 and the relative cell number (sgRNA knockout: sgXBP1, 100 nM) was 108 ± 27. It also gave a relative cell number [26] of 105 ± 29 and a relative cell number [27] of 97.2 ± 9.9.

For COc1cc2nccc(Oc3ccc(NC(=O)Nc4cc(C)on4)c(Cl)c3)c2cc1OC [Tivozanib], the relative cell number (sgRNA knockout: sgATF3, 10 nM) was 96.6 ± 5.4, the relative cell number (sgRNA knockout: sgATF3, 100 nM) was 96.9 ± 3.9 and the relative cell number [1] was 103 ± 5.4. It also gave a relative cell number [2] of 50.2 ± 3.9, a relative cell number (sgRNA knockout: sgATF4, 10 nM) of 102 ± 14 and a relative cell number (sgRNA knockout: sgATF4, 100 nM) of 85.16 ± 0.46. The relative cell number [3] was 93.34 ± 0.64, the relative cell number [4] was 50 ± 4 and the relative cell number (sgRNA knockout: sgATF6, 10 nM) was 98.2 ± 12. The relative cell number (sgRNA knockout: sgATF6, 100 nM) was 103 ± 16, the relative cell number [5] was 125 ± 5.5 and the relative cell number [6] was 58.1 ± 13. It also gave a relative cell number (sgRNA knockout: sgATG7, 10 nM) of 92.9 ± 4.5, a relative cell number (sgRNA knockout: sgATG7, 100 nM) of 96.1 ± 13 and a relative cell number [7] of 103 ± 4.4. It also gave a relative cell number [8] of 52.7 ± 2.4, a relative cell number (sgRNA knockout: sgERN1, 10 nM) of 98.9 ± 12 and a relative cell number (sgRNA knockout: sgERN1, 100 nM) of 91.6 ± 9.6. It also gave a relative cell number [9] of 95.4 ± 3.9, a relative cell number [10] of 56.1 ± 3.9 and a relative cell number (sgRNA knockout: sgHSF1, 10 nM) of 91.6 ± 14. The relative cell number (sgRNA knockout: sgHSF1, 100 nM) was 102 ± 1.4, the relative cell number [11] was 100 ± 34 and the relative cell number [12] was 70.3 ± 3.8. For the same compound, the relative cell number (sgRNA knockout: sgHSF2, 10 nM) was 90.1 ± 4.4, the relative cell number (sgRNA knockout: sgHSF2, 100 nM) was 94.7 ± 1.7 and the relative cell number [13] was 105 ± 2. It also gave a relative cell number [14] of 59.69 ± 0.47, a relative cell number (sgRNA knockout: sgKEAP1, 10 nM) of 108 ± 6.2 and a relative cell number [15] of 98.4 ± 5. The relative cell number [16] was 91.8 ± 2.2, the relative cell number [17] was 62.5 ± 8.8 and the relative cell number [18] was 98.6 ± 20. It also gave a relative cell number [19] of 94.4 ± 16, a relative cell number [20] of 99.2 ± 2.4 and a relative cell number [21] of 50.3 ± 1.5. It also gave a relative cell number [22] of 92.4 ± 13, a relative cell number [23] of 93.7 ± 17 and a relative cell number [24] of 104 ± 6.6. For the same compound, the relative cell number [25] was 55.5 ± 3.1, the relative cell number (sgRNA knockout: sgXBP1, 10 nM) was 94.9 ± 18 and the relative cell number (sgRNA knockout: sgXBP1, 100 nM) was 92.3 ± 13. The relative cell number [26] was 98.59 ± 0.29 and the relative cell number [27] was 57.08 ± 0.46.

O=P1(N(CCCl)CCCl)NCCCO1 (configuration not stated) [Cyclophosphamide] gave a relative cell number (sgRNA knockout: sgATF3, 10 nM) of 101 ± 5.4, a relative cell number (sgRNA knockout: sgATF3, 100 nM) of 93.3 ± 1.6 and a relative cell number [1] of 102 ± 3.8. It also gave a relative cell number [2] of 92.44 ± 0.45, a relative cell number (sgRNA knockout: sgATF4, 10 nM) of 91.2 ± 4.2 and a relative cell number (sgRNA knockout: sgATF4, 100 nM) of 86.39 ± 0.17. It also gave a relative cell number [3] of 106 ± 19, a relative cell number [4] of 95.1 ± 1.9 and a relative cell number (sgRNA knockout: sgATF6, 10 nM) of 102 ± 4.1. It also gave a relative cell number (sgRNA knockout: sgATF6, 100 nM) of 109 ± 16, a relative cell number [5] of 106 ± 7.2 and a relative cell number [6] of 106 ± 1.1. It also gave a relative cell number (sgRNA knockout: sgATG7, 10 nM) of 89.9 ± 1.6, a relative cell number (sgRNA knockout: sgATG7, 100 nM) of 86.9 ± 3.1 and a relative cell number [7] of 98.8 ± 13. It also gave a relative cell number [8] of 91.8 ± 9.8, a relative cell number (sgRNA knockout: sgERN1, 10 nM) of 83.9 ± 7.7 and a relative cell number (sgRNA knockout: sgERN1, 100 nM) of 97.4 ± 1.6. The relative cell number [9] was 99 ± 12, the relative cell number [10] was 97.2 ± 8.1 and the relative cell number (sgRNA knockout: sgHSF1, 10 nM) was 86.45 ± 0.84. For the same compound, the relative cell number (sgRNA knockout: sgHSF1, 100 nM) was 106 ± 18, the relative cell number [11] was 96.2 ± 16 and the relative cell number [12] was 108 ± 15. For the same compound, the relative cell number (sgRNA knockout: sgHSF2, 10 nM) was 91 ± 8.8, the relative cell number (sgRNA knockout: sgHSF2, 100 nM) was 106 ± 10 and the relative cell number [13] was 105 ± 15. It also gave a relative cell number [14] of 96.8 ± 21, a relative cell number (sgRNA knockout: sgKEAP1, 10 nM) of 92.7 ± 11 and a relative cell number [15] of 100 ± 26. For the same compound, the relative cell number [16] was 122 ± 15, the relative cell number [17] was 114 ± 24 and the relative cell number [18] was 88.2 ± 7.3. For the same compound, the relative cell number [19] was 85.8 ± 0.99, the relative cell number [20] was 106 ± 32 and the relative cell number [21] was 96.4 ± 9.7. It also gave a relative cell number [22] of 83 ± 13, a relative cell number [23] of 94.2 ± 2 and a relative cell number [24] of 102 ± 1.3. The relative cell number [25] was 98.7 ± 14, the relative cell number (sgRNA knockout: sgXBP1, 10 nM) was 93.8 ± 12 and the relative cell number (sgRNA knockout: sgXBP1, 100 nM) was 89.7 ± 2.9. For the same compound, the relative cell number [26] was 105 ± 21 and the relative cell number [27] was 101 ± 5.5.
